The source of these data is patent publication US20100222401A1 (UNIVERSITY OF UTAH RESEARCH FOUNDATION, published 2010).

This assay concerns the target T1, Robo4 cytoplasmic tail-HA (UniProt Q8C310 494-1012, limits assumed).
T1 construct: domain: cytoplasmic tail; Expressed in HEK 293 cells for co-immunoprecipitation; also called Robo4 tail
T1 sequence (looked up): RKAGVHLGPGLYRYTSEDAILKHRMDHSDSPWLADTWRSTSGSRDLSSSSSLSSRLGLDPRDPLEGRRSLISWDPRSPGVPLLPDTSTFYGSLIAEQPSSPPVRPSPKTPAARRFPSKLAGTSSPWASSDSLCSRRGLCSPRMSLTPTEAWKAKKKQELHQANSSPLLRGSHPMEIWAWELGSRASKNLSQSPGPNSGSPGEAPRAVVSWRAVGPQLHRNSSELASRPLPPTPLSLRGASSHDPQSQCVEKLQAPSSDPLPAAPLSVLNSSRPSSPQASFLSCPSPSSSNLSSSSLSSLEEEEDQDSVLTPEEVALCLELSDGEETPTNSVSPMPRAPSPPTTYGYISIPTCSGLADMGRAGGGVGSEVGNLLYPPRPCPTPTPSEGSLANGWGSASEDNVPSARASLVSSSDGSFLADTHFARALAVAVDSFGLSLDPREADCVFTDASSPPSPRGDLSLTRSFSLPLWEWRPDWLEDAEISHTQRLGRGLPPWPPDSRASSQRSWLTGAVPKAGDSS
Description: co-immunoprecipitation (anti-HA IP, anti-V5 blot), HEK 293 cells.

B1: paxillin-LD (other, murine, UniProt Q8VI36 1-355, looked up, not shown: small tags and cut ends)
chain: MDDLDALLADLESTTSHISKRPVFLSEEPPYSYPTGNHTYQEIAVPPPVPPPPSSEALNGTVLDPLDQWQPSGSRYAHQQPPSPLPVYSSSAKNSSASNTQDGVGSLCSRAGEEEHVYSFPNKQKSAEPSPTVMSSSLGSNLSELDRLLLELNAVQHSPPGFPADEAESSPPLPGALSPLYGIPENNTPLGGKAGPLVKEKPKRNGGRGLEDVRPSVESLLDELESSVPSPVPAITVNQGEMSSPQRVTSSQQQTRISASSATRELDELMASLSDFKMQGLEQRVDGERPWAAGWPPSSRQSSPEGQDEGGFMAQGKTGSSSPPGGLSKPGSQLDSMLGSLQSDLNKLGVATVAK
notes: domain: LD repeats
As for B1, the binding result is recorded as “no binding”.
